Results are given in words; binding and its absence hold for the method and conditions named. Binding calls can cover weak binding; strength is not graded here.
Molecular target: M. gallisepticum FtsZ, bacterial two-hybrid fusion (Mycoplasma gallisepticum) (UniProt Q7NB81)
Assay: two-hybrid

Substance: M. gallisepticum FtsK, bacterial two-hybrid fusion (from UniProt Q7NC25)
- binding: binds

Source: publication doi:10.1101/2025.09.01.673419
